Reference: publication PMC6013234
The exact form of at least one protein or probe is not confirmed. At least one verdict was read from the data and is not stated in words by the source.

These sequences were tested on DENR (in DENR-MCTS1 complex, coexpressed) + MCTS1 (in DENR-MCTS1 complex, coexpressed) (assay: EMSA). Conditions: similar affinity to other human tRNAs, Kd in figure only; none; 50 mM Tris pH 7.5, 150 mM NaCl, 15 mM imidazole (protein eluted in 300 mM imidazole, 2 mM DTT added), protein 0.25-16 uM, RNA 1 uM (3 uM yeast tRNA mix), 30 min on ice; recombinant protein; protein details: His6 on DENR or MCTS1,C-terminal His6 or untagged; letters put together from the description.

Binding result, binds:
GUCAGUAUGGCAGAGCGGUAUAAGGCGGUGCGUUCAGGUCACAGUCUCCCCUGGAGGCGUGGGUUAGAAUCCCACUCGUGACCCA [human tRNA Leu (IVT)]
GGGGGAUUAGCUCAAAUGGUAGAGCGCUCGCUUAGCAUGCGAGAGGUAGCGGGAUCGAUGCCCGCAUCCUCCACCA [human tRNA Ala (IVT)]
GCCUCGUUAGCGCAGUAGGUAGCGCGUCAGUCUCAUAAUCUGAAGGUCGUGAGUUCGAUCCUCACACGGGGCACCA [human tRNA elonMet (IVT)]
